Source: the supplement of paper PMC10849652
The other results are listed elsewhere or left out.

Protein sequences, listed by entry. Tags and fused reporters are not part of them. Lines headed by an entry give the natural chain unless they say otherwise; changes in a name come on top.
UniProt Q9Y5C1: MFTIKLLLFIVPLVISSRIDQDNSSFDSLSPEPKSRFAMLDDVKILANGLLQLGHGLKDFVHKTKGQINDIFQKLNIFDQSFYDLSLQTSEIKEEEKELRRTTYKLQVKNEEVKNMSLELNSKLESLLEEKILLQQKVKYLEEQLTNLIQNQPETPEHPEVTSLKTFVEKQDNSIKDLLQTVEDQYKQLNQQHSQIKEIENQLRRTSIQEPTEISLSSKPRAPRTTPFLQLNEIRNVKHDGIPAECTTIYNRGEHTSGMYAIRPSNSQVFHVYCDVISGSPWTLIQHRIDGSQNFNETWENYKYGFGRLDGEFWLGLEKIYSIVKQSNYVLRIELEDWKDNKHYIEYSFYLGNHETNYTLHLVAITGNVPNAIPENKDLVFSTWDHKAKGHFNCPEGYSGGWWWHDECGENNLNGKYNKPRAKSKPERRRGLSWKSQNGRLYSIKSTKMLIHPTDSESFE
UniProt Q9NZN5: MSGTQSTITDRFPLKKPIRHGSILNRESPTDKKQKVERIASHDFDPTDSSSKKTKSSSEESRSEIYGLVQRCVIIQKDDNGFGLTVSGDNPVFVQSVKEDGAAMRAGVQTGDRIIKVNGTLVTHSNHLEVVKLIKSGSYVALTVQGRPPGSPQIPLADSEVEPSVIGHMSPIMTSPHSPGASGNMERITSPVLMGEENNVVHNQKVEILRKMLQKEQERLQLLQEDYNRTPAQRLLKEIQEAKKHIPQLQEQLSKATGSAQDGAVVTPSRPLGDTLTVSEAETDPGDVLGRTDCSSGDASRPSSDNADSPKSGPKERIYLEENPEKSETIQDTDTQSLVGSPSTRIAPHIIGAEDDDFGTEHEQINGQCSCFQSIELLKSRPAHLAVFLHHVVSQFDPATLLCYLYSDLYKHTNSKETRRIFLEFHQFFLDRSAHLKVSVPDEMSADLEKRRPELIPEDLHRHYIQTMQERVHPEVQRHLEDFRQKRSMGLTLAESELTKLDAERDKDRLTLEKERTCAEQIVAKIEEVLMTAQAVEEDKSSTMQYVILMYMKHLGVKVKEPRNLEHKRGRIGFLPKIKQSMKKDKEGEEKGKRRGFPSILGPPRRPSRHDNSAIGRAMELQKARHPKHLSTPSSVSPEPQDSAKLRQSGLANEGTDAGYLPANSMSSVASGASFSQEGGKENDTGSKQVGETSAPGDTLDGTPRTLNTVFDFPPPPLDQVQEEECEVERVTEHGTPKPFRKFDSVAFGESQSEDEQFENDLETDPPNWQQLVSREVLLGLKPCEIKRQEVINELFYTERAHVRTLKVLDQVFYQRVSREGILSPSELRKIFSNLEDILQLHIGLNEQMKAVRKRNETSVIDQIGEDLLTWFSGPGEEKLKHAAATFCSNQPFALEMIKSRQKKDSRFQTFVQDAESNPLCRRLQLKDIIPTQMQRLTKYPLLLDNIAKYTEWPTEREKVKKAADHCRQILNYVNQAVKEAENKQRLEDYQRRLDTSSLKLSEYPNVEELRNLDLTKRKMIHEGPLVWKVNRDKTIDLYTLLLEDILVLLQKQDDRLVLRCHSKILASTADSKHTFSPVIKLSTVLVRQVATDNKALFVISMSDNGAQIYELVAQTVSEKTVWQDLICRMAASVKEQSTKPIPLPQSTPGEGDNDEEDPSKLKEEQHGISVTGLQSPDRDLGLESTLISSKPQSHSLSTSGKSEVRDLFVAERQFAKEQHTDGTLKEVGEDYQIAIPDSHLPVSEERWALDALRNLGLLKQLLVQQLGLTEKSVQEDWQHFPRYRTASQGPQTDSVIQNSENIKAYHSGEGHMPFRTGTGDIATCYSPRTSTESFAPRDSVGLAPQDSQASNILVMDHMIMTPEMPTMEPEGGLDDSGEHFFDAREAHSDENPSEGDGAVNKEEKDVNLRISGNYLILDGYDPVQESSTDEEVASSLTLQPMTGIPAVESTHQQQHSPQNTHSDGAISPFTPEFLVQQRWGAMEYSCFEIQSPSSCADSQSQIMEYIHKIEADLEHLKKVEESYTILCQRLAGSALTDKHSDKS
UniProt P12429: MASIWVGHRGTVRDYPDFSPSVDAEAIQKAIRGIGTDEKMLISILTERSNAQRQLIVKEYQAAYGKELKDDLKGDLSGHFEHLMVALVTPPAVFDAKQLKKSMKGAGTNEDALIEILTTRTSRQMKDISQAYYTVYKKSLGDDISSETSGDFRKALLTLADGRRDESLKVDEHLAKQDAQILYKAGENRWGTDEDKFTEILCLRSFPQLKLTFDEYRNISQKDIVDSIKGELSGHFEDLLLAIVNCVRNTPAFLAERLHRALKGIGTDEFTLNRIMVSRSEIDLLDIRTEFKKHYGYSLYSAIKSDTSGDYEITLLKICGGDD
UniProt Q9NP61: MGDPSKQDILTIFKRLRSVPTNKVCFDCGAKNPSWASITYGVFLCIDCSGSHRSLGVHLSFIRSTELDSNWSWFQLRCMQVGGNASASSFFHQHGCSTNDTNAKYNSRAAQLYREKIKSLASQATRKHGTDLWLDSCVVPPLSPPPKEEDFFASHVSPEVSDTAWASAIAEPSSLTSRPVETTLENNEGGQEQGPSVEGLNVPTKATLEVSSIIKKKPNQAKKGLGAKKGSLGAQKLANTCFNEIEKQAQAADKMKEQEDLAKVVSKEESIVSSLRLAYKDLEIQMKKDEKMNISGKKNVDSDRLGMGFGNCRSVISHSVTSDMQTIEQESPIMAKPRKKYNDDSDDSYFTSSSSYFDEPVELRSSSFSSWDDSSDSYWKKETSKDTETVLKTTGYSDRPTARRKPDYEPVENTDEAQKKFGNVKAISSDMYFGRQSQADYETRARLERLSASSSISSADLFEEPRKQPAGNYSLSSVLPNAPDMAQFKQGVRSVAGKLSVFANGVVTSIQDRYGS
UniProt P02647, whole entry, looked up: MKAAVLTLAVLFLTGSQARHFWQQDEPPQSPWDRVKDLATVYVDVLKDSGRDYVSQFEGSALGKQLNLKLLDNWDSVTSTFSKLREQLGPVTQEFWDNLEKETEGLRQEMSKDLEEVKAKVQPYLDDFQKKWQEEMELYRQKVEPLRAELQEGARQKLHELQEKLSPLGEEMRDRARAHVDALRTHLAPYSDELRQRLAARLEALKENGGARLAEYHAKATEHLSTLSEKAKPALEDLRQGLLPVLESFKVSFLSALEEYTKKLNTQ
UniProt Q9HDC9: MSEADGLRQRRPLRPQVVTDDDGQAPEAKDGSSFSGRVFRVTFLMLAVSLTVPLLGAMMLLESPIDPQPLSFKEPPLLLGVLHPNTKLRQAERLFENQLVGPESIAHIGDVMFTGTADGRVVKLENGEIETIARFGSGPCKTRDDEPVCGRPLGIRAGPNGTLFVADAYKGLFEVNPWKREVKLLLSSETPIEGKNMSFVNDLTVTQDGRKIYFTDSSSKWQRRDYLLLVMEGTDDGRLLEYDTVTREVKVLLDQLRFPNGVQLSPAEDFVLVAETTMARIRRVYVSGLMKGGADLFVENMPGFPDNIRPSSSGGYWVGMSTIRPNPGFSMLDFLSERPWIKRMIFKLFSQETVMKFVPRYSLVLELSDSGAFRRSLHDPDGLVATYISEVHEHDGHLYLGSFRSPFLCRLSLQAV
UniProt Q0VD83: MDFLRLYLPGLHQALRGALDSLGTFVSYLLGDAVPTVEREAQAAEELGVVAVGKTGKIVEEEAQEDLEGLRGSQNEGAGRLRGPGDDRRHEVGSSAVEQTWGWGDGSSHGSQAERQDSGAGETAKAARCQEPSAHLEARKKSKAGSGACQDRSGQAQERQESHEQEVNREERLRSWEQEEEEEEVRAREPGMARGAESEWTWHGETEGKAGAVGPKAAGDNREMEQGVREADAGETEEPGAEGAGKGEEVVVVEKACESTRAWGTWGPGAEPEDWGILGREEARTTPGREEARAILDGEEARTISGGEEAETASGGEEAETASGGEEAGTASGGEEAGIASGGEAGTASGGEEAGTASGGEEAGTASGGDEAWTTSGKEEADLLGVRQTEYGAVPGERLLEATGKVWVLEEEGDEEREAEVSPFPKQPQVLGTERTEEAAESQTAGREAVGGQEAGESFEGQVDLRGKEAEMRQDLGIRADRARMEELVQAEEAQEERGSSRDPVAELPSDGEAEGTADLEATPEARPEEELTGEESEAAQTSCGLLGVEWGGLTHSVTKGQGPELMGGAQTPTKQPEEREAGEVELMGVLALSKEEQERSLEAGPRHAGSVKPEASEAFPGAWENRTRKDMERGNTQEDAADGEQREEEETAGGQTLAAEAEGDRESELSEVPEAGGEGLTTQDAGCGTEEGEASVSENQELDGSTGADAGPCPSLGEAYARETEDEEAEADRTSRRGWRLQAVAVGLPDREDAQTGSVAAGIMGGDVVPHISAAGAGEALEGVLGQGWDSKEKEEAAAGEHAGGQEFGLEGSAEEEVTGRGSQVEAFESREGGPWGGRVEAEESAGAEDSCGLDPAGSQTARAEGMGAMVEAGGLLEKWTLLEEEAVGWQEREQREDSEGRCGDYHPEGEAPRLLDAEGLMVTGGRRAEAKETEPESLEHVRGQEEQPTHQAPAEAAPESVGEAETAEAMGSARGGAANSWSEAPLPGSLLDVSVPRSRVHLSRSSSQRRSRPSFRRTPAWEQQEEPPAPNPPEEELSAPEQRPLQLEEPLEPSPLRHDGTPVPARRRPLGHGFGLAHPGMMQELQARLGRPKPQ
UniProt Q10567: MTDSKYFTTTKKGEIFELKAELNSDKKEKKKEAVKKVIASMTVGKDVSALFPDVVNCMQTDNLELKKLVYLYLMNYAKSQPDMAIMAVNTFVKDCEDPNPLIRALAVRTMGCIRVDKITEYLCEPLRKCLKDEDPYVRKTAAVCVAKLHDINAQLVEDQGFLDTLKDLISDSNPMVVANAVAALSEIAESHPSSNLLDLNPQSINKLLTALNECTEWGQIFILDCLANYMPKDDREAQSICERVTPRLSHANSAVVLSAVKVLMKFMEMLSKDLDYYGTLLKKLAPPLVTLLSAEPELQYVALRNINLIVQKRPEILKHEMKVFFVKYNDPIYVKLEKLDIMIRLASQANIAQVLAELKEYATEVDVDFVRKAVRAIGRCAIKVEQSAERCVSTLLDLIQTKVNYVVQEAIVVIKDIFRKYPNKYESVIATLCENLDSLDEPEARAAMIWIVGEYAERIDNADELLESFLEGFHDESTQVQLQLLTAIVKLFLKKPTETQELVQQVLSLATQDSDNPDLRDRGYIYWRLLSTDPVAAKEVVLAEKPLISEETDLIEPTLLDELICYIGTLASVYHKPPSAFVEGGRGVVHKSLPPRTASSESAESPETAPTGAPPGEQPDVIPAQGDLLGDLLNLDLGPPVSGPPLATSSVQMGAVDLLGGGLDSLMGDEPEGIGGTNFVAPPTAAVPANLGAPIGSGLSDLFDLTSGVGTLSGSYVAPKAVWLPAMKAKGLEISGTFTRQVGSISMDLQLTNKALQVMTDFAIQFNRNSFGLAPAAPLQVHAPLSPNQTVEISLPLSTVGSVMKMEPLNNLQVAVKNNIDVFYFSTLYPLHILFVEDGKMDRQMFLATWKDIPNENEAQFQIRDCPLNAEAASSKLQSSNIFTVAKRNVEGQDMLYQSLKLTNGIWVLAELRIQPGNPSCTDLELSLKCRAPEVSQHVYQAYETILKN
UniProt Q9BUR5: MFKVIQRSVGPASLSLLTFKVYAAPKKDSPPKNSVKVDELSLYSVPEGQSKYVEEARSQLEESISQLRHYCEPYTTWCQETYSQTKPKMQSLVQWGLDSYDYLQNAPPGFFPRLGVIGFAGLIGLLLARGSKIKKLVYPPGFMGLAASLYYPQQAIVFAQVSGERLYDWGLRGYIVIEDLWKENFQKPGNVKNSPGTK
UniProt O43747: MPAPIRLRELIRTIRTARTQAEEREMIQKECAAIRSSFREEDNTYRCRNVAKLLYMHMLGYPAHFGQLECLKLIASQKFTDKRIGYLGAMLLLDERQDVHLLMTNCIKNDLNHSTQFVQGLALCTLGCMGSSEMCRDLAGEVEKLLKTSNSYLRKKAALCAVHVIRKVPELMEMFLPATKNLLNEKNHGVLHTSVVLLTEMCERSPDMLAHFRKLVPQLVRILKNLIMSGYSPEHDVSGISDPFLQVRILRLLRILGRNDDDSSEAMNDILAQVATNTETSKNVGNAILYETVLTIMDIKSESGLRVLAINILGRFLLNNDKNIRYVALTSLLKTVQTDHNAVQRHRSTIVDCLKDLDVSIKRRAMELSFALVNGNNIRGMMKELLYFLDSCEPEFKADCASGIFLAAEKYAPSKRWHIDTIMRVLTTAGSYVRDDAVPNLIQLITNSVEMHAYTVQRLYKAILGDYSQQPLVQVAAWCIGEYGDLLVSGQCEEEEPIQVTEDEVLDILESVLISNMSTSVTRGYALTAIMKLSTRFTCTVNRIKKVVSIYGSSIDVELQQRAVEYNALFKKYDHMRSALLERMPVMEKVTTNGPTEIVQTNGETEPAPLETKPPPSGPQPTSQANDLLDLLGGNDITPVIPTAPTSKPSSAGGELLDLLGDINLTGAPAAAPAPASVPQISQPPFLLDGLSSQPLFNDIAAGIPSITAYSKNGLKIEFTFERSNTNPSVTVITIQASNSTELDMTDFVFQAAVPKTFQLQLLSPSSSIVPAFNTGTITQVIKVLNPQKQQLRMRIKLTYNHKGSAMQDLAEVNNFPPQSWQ

compound: COC1=CC=C(C=C1)CN2C=CC3=C2C=C(C=C3)C(=O)NO; test: log2 fold change, soluble protein after heating vs DMSO (PISA); higher = thermal stabilisation; K562 cells, 10 uM, 30 min; active = over 0.2 and 3.5 SD of the protein, either way, in both replicates (recomputed)
Summary of the method: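 K562 cells at 2×10^6 cells/mL were treated for 30 min with 10 μM compound, and aliquots were heated for 3 min over 48°C-58°C before pooling. Extraction used PBS with 0.5% NP-40 at 4°C, and soluble protein was the supernatant after 21,000xg for 90 min, measured by TMTpro 16plex LC-MS/MS with channel sums equalised. Thermal stability values, relative to control samples and from duplicates, are log2 fold changes.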

log2 fold change, inactive:
ANGPTL3 (UniProt Q9Y5C1) -0.076
AP2B1 isoform 2 (UniProt P63010) 0.08
ANTKMT (UniProt Q9BQD7) 0.105
ANKMY2 (UniProt Q8IV38) 0.037
AP4B1 (UniProt Q9Y6B7) 0.036
AP2A1 (UniProt O95782) 0.044
ANK1 isoform 14 (UniProt P16157) 0.045
AQR (UniProt O60306) 0.145
ARHGAP1 (UniProt Q07960) -0.016
ANKRD13A (UniProt Q8IZ07) -0.024
ANKRD49 (UniProt Q8WVL7) 0.003
APOOL (UniProt Q6UXV4) -0.01
ARID1A (UniProt O14497) 0.238
ARFGEF2 (UniProt Q9Y6D5) 0.013
ARHGEF12 (UniProt Q9NZN5) -0.088
ARHGEF7 isoform 5 (UniProt Q14155) 0.067
ARAP1 (UniProt Q96P48) 0.002
ANXA3 (UniProt P12429) -0.03
ARFGAP3 (UniProt Q9NP61) 0.028
APTX (UniProt Q7Z2E3) 0.038
APOA1 (UniProt P02647) 0.118
APMAP (UniProt Q9HDC9) -0.041
APOBR (UniProt Q0VD83) -0.133
APOBEC3G (UniProt Q9HC16) -0.012
AP1B1 (UniProt Q10567) 0.035
APIP (UniProt Q96GX9) -0.036
APOBEC3D (UniProt Q96AK3) 0.024
AP5M1 (UniProt Q9H0R1) -0.037
ANXA5 (UniProt P08758) 0.033
ARFGAP1 (UniProt Q8N6T3) 0.03
APOO (UniProt Q9BUR5) 0.085
ARHGAP6 (UniProt O43182) 0.082
APLP2 (UniProt Q06481) 0.036
APOM (UniProt O95445) 0.03
AP1G1 isoform 2 (UniProt O43747) 0.11
APOB (UniProt P04114) 0.034
ANAPC5 (UniProt Q9UJX4) 0.007
AP2M1 (UniProt C9JTK4) 0.016
ARHGAP12 (UniProt Q8IWW6) 0.325

A stretch taken from the entries so far, as a working copy:
log2 fold change, inactive:
AP2A1 (UniProt O95782) 0.044
ANK1 isoform 14 (UniProt P16157) 0.045
